Test results: US20230052517A1, “ELECTROCHEMICAL SENSING METHODS AND APPARATUS FOR DETERMINING DRUG UPTAKE AND RETENTION IN CELLS” (priority 2020, published 2023)

Legend:
[1] = tested on: Pseudomonas aeruginosa PA01 (ciprofloxacin-susceptible) and PA262 (ciprofloxacin-resistant); conditions: 1 mM, 25 minutes at 37° C.
Method: (§1) DPV measurements of 1 mM Cip were taken and after incubation, centrifugation was performed at 4000 rpm for 10 min and the supernatant was collected.

[2] = Control drug solution without bacterial cells incubated at 37° C., DPV; conditions: 1 mM in PBS, 25 minutes at 37° C.
Method: as §1
Similarly uptake of Tobramycin (2 mM), was analyzed in Pseudomonas aeruginosa also using DPV. The control solutions were tested before and after incubation at 37° C. and with different incubation times at 37° C. (i.e. 15 minutes; 30 minutes and 60 minutes). […] Integration underneath the curves provides the charge. This charge is proportional to the number of molecules transferred during DPV recordings (see FIGS. 11-14).

O=C(O)c1cn(C2CC2)c2cc(N3CCNCC3)c(F)cc2c1=O [ciprofloxacin]
DPV current signal of supernatant compared to controls (uptake by the bacteria) [1]: lower current signal | difference in uptake between PA01 and PA262 strains [1]: No statistically significant difference | stability of ciprofloxacin in solution [2]: does not lead to a degradation of ciprofloxacin in solution
